These are yes or no findings as the source states them, for the method shown. In cells and extracts the contact can be indirect. Some binding calls cover weakened binding; strength is not graded here.
Molecular target: T1, AdipoR1 (human (endogenous in MCF-7)) (UniProt Q96A54)
T1 sequence: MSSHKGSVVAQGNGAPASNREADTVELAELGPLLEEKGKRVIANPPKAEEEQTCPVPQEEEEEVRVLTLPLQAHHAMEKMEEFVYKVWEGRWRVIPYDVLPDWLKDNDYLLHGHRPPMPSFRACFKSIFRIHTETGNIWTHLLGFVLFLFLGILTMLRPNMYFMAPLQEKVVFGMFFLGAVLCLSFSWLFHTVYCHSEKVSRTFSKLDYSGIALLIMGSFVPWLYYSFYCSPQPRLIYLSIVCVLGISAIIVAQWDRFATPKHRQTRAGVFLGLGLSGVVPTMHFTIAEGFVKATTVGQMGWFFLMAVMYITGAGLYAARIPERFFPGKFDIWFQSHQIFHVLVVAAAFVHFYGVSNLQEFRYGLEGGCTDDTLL
Assay: co-IP; endogenous proteins of MCF-7 cell lysate; precipitated with anti-AdipoR1 and blotted with anti-Flotillin-1, and the reverse; Protein G Plus/Protein A agarose, 4 °C

- binding: binds
B1: Flotillin-1 (protein, UniProt O75955 1-427)
chain: MFFTCGPNEAMVVSGFCRSPPVMVAGGRVFVLPCIQQIQRISLNTLTLNVKSEKVYTRHGVPISVTGIAQVKIQGQNKEMLAAACQMFLGKTEAEIAHIALETLEGHQRAIMAHMTVEEIYKDRQKFSEQVFKVASSDLVNMGISVVSYTLKDIHDDQDYLHSLGKARTAQVQKDARIGEAEAKRDAGIREAKAKQEKVSAQYLSEIEMAKAQRDYELKKAAYDIEVNTRRAQADLAYQLQVAKTKQQIEEQRVQVQVVERAQQVAVQEQEIARREKELEARVRKPAEAERYKLERLAEAEKSQLIMQAEAEAASVRMRGEAEAFAIGARARAEAEQMAKKAEAFQLYQEAAQLDMLLEKLPQVAEEISGPLTSANKITLVSSGSGTMGAAKVTGEVLDILTRLPESVERLTGVSISQVNHKPLRTA
